Results are given in words; binding and its absence hold for the method and conditions named. In cells and extracts the contact can be indirect. Some entries that bind do so weakly or less than the wild type.
Experiments:
Thbd (205-518) segment = biological target: T1, Thbd (205-518) segment (UniProt P15306); assay: co-IP; HEK293T cells transfected with pcDNA3.1 constructs; lysate supernatant incubated with antibody-coupled Protein A or Protein G beads, washed three times with lysis buffer, Western blot
T1 sequence: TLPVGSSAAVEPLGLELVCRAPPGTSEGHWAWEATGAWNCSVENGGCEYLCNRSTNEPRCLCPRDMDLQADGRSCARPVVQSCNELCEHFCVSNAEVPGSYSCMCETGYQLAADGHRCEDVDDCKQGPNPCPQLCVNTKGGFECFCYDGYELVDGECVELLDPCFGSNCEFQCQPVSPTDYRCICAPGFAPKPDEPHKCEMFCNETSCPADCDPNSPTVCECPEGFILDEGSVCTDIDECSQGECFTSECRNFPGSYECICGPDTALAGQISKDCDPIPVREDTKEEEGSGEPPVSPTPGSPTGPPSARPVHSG

Sequences of proteins named here, by UniProt entry; tags and fusion partners are left off. Residues count along the entry.
UniProt O54819, residues 29-306: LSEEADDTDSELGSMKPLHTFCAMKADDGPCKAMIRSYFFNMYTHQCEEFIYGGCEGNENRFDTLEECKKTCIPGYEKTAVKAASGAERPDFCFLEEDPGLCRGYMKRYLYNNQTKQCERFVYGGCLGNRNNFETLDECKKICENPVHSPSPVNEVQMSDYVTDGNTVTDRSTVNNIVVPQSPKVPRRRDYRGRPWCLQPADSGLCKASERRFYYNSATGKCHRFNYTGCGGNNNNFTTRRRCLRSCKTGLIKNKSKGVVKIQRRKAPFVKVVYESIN

Thbd (thrombomodulin) = Thbd (thrombomodulin) (UniProt P15306); assay: as above
Thbd (17-204) segment = biological target: T2, Thbd (17-204) segment (UniProt P15306); assay: as above
T2 sequence: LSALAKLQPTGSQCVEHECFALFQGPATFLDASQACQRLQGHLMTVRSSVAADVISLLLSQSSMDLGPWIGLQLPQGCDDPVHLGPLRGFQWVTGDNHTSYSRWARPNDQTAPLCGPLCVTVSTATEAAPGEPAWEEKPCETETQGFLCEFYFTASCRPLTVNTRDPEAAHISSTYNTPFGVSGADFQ

[1] = biological target: Thbd in F4/80+CD169+Vcam-1+ macrophages (mouse (in F4/80+CD169+Vcam-1+ macrophages sorted from mice; endogenous or transfected not stated)) (UniProt P15306); assay: co-IP; F4/80+CD169+Vcam-1+ macrophages; lysate supernatant incubated with antibody-coupled Protein A or Protein G beads, washed three times with lysis buffer, Western blot

For “Flag-tagged TFPI (tissue factor pathway inhibitor) (from UniProt O54819 29-306)”, the binding (Thbd (205-518) segment) was “binds”, the binding (Thbd (thrombomodulin)) was “binds” and the binding (Thbd (17-204) segment) was “no binding”.
In the case of “TFPI in F4/80+CD169+Vcam-1+ macrophages (from UniProt O54819 29-306)”, the binding [1] was “binds”.

Source: PMC11087540
